Values from PubChem BioAssay AID493246 (Drosophila RNAi Screening Center, 2011).
The deposit covers about 21,000 reagents; below is a random part of those that have a named target and a result. Over the whole deposit, 429 (2%) were called active. 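Values are raw and not normalised between plates; calls rest on per-plate z-scores that were not deposited.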 Not given: the amount of reagent, the time to read-out.

- Test: 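Genes fly cells need to grow and stay alive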 (primary screen)
- System: Drosophila Kc and S2R+ cells
- Reagent: long dsRNA against Drosophila genes
- Measurement: 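Cell number per well after knock-down, printed as raw plate values; calls were based on per-plate z-scores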
- Reading the numbers: Kc cell number and S2R+ cell number: higher = more cells remaining
- Hit rule: 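Counted as a hit if cell number falls by a z-score of at least 3 within its plate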

target gene | amplicon | Kc cell number, rep 1 | Kc cell number, rep 2 | S2R+ cell number, rep 1 | S2R+ cell number, rep 2 | Call
CG1421 (GeneID 35432) | DRSC03707 | 1.44e6 | 1.57e6 | 1.22e6 | 3.06e5 | inactive
BomBc1 (GeneID 37099) | DRSC06501 | 1.51e6 | 1.57e6 | 1.16e6 | 1.24e6 | inactive
Abcd1 (GeneID 43772) | DRSC17157 | 5.09e5 | – | 8.25e5 | – | inactive
CG6553 (GeneID 36537) | DRSC07002 | 1.83e6 | 1.88e6 | 1.31e6 | 1.49e6 | inactive
CG9372 (GeneID 40137) | DRSC11068 | 1.35e6 | 1.34e6 | 1.16e6 | 1.30e6 | inactive
Capr (GeneID 59172) | DRSC10346 | 1.30e6 | 1.39e6 | 1.31e6 | 1.41e6 | inactive
CG13561 (GeneID 37765) | DRSC04199 | 1.59e6 | 1.68e6 | 1.42e6 | 1.57e6 | inactive
Qsox1 (GeneID 36464) | DRSC06878 | 1.70e6 | 1.80e6 | 1.45e6 | 1.52e6 | inactive
Atac1 (GeneID 33977) | DRSC03155 | 1.78e6 | 1.76e6 | 1.14e6 | 1.25e6 | inactive
CG14636 (GeneID 40526) | DRSC12223 | 1.43e6 | 1.54e6 | 1.36e6 | 1.45e6 | inactive
Atf3 (GeneID 43867) | DRSC17225 | 1.32e6 | 1.51e6 | 6.83e5 | 7.66e5 | active
CG10184 (GeneID 42783) | DRSC14204 | 1.57e6 | 1.69e6 | 1.25e6 | 1.33e6 | inactive
bab1 (GeneID 38116) | DRSC08379 | 1.28e6 | 1.30e6 | 6.28e5 | 7.10e5 | inactive
bab1 (GeneID 38116) | DRSC08709 | 1.61e6 | 1.48e6 | 8.58e5 | 1.45e6 | inactive
CG14947 (GeneID 34628) | DRSC02429 | 1.55e6 | 1.57e6 | 1.25e6 | 1.41e6 | inactive
nht (GeneID 34902) | DRSC01976 | 1.31e6 | 1.37e6 | 9.78e5 | 1.08e6 | inactive
CG12716 (GeneID 32248) | DRSC19493 | 1.86e6 | 1.82e6 | 1.13e6 | 1.27e6 | inactive
Mlp60A (GeneID 37853) | DRSC04623 | 1.63e6 | 1.73e6 | 1.17e6 | 1.33e6 | inactive
CG12438 (GeneID 34202) | DRSC02167 | 1.64e6 | 1.63e6 | 1.11e6 | 1.29e6 | inactive
CG17732 (GeneID 40182) | DRSC10283 | 1.44e6 | 1.43e6 | 1.36e6 | 1.49e6 | inactive
CG8916 (GeneID 32553) | DRSC20120 | 1.39e6 | 1.40e6 | 1.13e6 | 1.16e6 | inactive
ktub (GeneID 37400) | DRSC04551 | 1.46e6 | 1.57e6 | 1.08e6 | 1.09e6 | inactive
CG18343 (GeneID 36297) | DRSC06726 | 1.68e6 | 1.60e6 | 1.25e6 | 1.40e6 | inactive
Nlg4 (GeneID 42402) | DRSC15108 | 1.40e6 | 1.40e6 | 1.03e6 | 1.14e6 | inactive
Nlg4 (GeneID 42402) | DRSC15109 | 1.42e6 | 1.42e6 | 1.04e6 | 1.13e6 | inactive
Nlg4 (GeneID 42402) | DRSC15700 | 1.40e6 | 1.47e6 | 1.02e6 | 1.09e6 | inactive
Nlg4 (GeneID 42402) | DRSC15701 | 7.68e5 | 7.34e5 | 5.68e5 | 6.26e5 | active

3 successive entries already listed, for reference:
target gene | amplicon | Kc cell number, rep 1 | Kc cell number, rep 2 | S2R+ cell number, rep 1 | S2R+ cell number, rep 2 | Call
Qsox1 (GeneID 36464) | DRSC06878 | 1.70e6 | 1.80e6 | 1.45e6 | 1.52e6 | inactive
Atac1 (GeneID 33977) | DRSC03155 | 1.78e6 | 1.76e6 | 1.14e6 | 1.25e6 | inactive
CG14636 (GeneID 40526) | DRSC12223 | 1.43e6 | 1.54e6 | 1.36e6 | 1.45e6 | inactive
